These are yes or no findings as the source states them, for the method shown. In cells and extracts the contact can be indirect. Here binding means that the protein was enriched with, or labelled near, the bait; the list need not be complete.
Key:
Assay in all cases: proximity labelling
[1] = target: E-HA/TurboID^Site3 (SARS-CoV-2), P0DTC4; conditions: remark: other sources report otherwise
[2] = target: E-HA/TurboID^Site4 (SARS-CoV-2), P0DTC4; conditions: remark: other sources report otherwise
[3] = target: E-HA/TurboID^Site3 (SARS-CoV-2) (UniProt P0DTC4)

Amino acid sequences for entries named in this document (tags omitted).
UniProt P0DTC4: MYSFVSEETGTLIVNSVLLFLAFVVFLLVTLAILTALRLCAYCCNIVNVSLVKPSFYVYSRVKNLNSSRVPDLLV

B1: PALS-1, Q8N3R9 1-675 (protein)
chain: MTTSHMNGHVTEESDSEVKNVDLASPEEHQKHREMAVDCPGDLGTRMMPIRRSAQLERIRQQQEDMRRRREEEGKKQELDLNSSMRLKKLAQIPPKTGIDNPMFDTEEGIVLESPHYAVKILEIEDLFSSLKHIQHTLVDSQSQEDISLLLQLVQNKDFQNAFKIHNAITVHMNKASPPFPLISNAQDLAQEVQTVLKPVHHKEGQELTALLNTPHIQALLLAHDKVAEQEMQLEPITDERVYESIGQYGGETVKIVRIEKARDIPLGATVRNEMDSVIISRIVKGGAAEKSGLLHEGDEVLEINGIEIRGKDVNEVFDLLSDMHGTLTFVLIPSQQIKPPPAKETVIHVKAHFDYDPSDDPYVPCRELGLSFQKGDILHVISQEDPNWWQAYREGDEDNQPLAGLVPGKSFQQQREAMKQTIEEDKEPEKSGKLWCAKKNKKKRKKVLYNANKNDDYDNEEILTYEEMSLYHQPANRKRPIILIGPQNCGQNELRQRLMNKEKDRFASAVPHTTRSRRDQEVAGRDYHFVSRQAFEADIAAGKFIEHGEFEKNLYGTSIDSVRQVINSGKICLLSLRTQSLKTLRNSDLKPYIIFIAPPSQERLRALLAKEGKNPKPEELREIIEKTREMEQNNGHYFDTAIVNSDLDKAYQELLRLINKLDTEPQWVPSTWLR
binding [1]: binds
binding [2]: binds

B2: Golgi-localized Gamma ear–containing adaptor–1 (GGA1) (protein, UniProt Q9UJY5 1-639)
chain: MEPAMEPETLEARINRATNPLNKELDWASINGFCEQLNEDFEGPPLATRLLAHKIQSPQEWEAIQALTVLETCMKSCGKRFHDEVGKFRFLNELIKVVSPKYLGSRTSEKVKNKILELLYSWTVGLPEEVKIAEAYQMLKKQGIVKSDPKLPDDTTFPLPPPRPKNVIFEDEEKSKMLARLLKSSHPEDLRAANKLIKEMVQEDQKRMEKISKRVNAIEEVNNNVKLLTEMVMSHSQGGAAAGSSEDLMKELYQRCERMRPTLFRLASDTEDNDEALAEILQANDNLTQVINLYKQLVRGEEVNGDATAGSIPGSTSALLDLSGLDLPPAGTTYPAMPTRPGEQASPEQPSASVSLLDDELMSLGLSDPTPPSGPSLDGTGWNSFQSSDATEPPAPALAQAPSMESRPPAQTSLPASSGLDDLDLLGKTLLQQSLPPESQQVRWEKQQPTPRLTLRDLQNKSSSCSSPSSSATSLLHTVSPEPPRPPQQPVPTELSLASITVPLESIKPSNILPVTVYDQHGFRILFHFARDPLPGRSDVLVVVVSMLSTAPQPIRNIVFQSAVPKVMKVKLQPPSGTELPAFNPIVHPSAITQVLLLANPQKEKVRLRYKLTFTMGDQTYNEMGDVDQFPPPETWGSL
binding [3]: binds

— paper PMC10990277
